Measurements published in the supplement of paper PMC6411743.
± gives the standard deviation of the averaged measurements. The entries are a selection whose mix differs from that of the whole data set.

Protein sequences, listed by entry. Tags and fused reporters are not part of them. Lines headed by an entry give the natural chain unless they say otherwise; changes in a name come on top.
UniProt Q6PII3: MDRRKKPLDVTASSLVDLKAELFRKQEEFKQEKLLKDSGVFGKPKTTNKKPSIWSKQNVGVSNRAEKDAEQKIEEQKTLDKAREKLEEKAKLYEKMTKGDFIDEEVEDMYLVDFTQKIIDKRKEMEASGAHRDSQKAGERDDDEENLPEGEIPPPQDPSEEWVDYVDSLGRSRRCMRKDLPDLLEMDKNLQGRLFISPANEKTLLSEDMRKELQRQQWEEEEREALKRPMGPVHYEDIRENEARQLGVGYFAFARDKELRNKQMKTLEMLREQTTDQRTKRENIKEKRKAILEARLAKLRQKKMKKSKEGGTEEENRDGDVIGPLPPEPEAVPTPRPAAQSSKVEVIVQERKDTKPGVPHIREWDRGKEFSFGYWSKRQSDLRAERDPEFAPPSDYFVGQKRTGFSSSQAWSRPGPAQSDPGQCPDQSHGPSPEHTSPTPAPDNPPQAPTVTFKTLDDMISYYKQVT
UniProt Q6STE5, whole entry: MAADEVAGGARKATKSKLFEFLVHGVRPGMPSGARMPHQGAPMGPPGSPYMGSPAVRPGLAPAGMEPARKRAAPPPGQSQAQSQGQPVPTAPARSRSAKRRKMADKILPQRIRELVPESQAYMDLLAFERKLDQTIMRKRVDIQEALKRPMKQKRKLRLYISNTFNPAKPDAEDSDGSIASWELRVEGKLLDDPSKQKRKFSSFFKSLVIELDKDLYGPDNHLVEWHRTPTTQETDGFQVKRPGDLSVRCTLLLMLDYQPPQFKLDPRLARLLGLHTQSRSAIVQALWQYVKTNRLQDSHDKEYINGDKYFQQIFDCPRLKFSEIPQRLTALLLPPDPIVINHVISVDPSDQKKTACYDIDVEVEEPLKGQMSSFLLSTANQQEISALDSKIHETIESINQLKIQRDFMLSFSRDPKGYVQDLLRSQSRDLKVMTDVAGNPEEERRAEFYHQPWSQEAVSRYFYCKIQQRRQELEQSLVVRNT
UniProt Q86W56: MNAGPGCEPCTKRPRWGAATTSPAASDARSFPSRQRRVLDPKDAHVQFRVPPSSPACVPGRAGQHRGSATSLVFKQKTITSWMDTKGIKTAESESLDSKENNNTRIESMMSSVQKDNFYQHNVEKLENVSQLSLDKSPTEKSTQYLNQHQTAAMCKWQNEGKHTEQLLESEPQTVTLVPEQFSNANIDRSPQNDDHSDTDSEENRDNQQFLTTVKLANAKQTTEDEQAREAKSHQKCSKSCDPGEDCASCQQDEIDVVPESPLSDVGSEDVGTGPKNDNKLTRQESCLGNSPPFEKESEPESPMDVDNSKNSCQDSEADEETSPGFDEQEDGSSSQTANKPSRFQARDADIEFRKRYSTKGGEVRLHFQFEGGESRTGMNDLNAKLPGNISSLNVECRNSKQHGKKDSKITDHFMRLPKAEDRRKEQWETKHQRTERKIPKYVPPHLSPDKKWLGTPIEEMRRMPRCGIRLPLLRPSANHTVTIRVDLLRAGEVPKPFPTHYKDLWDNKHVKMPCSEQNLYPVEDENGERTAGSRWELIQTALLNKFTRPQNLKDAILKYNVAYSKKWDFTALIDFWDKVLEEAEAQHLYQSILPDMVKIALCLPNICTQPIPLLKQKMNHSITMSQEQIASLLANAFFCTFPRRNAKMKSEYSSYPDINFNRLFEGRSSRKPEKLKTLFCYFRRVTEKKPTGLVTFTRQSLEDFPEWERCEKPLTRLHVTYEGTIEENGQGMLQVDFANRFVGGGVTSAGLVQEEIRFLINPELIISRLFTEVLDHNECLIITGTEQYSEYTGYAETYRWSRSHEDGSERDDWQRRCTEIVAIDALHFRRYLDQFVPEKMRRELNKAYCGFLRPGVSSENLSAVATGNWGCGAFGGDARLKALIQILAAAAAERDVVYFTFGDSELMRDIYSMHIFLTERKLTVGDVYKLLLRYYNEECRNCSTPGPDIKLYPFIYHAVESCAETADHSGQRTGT
UniProt Q86TN4: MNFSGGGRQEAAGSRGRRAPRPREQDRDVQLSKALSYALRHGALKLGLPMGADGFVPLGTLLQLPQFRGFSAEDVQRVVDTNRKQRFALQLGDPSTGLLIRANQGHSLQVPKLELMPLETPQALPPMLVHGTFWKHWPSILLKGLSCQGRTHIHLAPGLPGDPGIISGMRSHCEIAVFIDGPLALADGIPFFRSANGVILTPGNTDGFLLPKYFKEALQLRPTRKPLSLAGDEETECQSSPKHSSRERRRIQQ
UniProt Q7Z6J9: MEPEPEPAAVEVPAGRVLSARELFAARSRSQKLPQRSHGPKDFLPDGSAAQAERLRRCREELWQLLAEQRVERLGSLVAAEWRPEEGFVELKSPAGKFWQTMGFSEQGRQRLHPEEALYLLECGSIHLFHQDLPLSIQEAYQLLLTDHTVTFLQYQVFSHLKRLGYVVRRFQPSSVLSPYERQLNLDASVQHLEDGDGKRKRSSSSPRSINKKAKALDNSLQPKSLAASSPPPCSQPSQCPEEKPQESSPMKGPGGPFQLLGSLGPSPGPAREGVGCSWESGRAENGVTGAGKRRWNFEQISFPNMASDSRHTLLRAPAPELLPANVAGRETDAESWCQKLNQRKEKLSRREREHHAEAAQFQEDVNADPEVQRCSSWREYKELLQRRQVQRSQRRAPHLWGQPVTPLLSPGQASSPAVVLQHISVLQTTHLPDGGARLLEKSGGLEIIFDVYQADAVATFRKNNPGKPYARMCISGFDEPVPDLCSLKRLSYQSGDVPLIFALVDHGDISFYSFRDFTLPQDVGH
UniProt Q86Y37: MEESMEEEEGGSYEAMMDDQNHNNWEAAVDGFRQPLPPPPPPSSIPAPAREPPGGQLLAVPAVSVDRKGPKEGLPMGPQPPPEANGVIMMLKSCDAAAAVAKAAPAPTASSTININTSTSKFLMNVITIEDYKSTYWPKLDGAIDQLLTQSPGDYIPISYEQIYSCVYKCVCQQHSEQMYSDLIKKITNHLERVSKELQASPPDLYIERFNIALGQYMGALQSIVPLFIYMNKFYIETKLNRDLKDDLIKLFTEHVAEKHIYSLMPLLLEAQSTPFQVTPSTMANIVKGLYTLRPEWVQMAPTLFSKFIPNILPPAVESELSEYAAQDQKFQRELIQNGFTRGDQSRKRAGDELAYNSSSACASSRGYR
UniProt Q6ZU80: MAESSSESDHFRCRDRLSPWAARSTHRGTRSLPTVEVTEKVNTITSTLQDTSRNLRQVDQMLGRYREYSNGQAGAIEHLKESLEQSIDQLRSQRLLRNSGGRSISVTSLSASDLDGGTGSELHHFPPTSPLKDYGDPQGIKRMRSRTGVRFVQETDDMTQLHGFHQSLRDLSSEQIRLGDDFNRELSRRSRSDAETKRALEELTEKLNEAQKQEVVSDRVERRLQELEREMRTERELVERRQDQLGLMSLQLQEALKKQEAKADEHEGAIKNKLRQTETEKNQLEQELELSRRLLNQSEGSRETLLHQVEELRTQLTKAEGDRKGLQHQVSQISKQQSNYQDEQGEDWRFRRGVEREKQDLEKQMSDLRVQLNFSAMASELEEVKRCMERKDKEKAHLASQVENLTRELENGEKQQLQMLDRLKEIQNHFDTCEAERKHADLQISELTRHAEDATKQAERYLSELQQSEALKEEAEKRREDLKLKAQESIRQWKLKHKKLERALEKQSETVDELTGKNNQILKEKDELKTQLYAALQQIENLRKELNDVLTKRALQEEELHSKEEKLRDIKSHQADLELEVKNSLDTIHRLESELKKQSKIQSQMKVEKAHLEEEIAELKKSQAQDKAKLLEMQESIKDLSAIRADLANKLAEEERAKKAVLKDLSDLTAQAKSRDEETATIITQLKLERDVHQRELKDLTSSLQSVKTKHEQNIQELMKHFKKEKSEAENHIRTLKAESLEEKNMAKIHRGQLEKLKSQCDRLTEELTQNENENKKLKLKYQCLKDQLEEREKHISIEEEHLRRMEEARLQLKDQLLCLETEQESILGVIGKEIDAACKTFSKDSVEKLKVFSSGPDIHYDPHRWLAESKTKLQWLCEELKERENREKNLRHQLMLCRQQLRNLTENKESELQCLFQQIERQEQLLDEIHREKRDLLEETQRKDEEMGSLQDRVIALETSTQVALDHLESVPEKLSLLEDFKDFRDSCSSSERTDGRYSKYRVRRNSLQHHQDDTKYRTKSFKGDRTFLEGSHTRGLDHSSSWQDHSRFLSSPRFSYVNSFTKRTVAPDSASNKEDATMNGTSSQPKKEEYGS
UniProt Q7Z5R6: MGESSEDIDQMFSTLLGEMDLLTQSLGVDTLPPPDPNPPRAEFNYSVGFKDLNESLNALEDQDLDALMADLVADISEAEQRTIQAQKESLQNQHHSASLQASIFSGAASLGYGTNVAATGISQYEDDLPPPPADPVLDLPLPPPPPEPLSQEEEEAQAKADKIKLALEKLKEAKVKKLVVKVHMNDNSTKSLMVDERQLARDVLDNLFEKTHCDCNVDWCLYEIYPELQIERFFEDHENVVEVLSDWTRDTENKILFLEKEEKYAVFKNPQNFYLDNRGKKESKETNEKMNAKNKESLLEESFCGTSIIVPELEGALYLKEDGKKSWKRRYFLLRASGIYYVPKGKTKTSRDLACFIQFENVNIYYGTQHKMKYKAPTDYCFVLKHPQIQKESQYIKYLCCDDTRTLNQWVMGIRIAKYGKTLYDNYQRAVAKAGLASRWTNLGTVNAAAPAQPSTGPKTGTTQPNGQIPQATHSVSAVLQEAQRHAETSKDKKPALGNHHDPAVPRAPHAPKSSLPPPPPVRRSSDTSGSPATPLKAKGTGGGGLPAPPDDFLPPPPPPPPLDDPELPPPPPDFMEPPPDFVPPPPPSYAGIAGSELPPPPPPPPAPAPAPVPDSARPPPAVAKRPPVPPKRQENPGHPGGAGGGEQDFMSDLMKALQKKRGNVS
UniProt Q6Y1H2: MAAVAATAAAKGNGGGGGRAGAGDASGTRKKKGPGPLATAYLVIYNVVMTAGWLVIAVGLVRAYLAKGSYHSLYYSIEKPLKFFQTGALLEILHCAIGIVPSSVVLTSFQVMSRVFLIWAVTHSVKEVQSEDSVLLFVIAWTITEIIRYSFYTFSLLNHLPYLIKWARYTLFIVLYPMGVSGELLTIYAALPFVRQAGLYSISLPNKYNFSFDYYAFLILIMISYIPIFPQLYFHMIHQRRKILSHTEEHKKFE
UniProt Q86UP2: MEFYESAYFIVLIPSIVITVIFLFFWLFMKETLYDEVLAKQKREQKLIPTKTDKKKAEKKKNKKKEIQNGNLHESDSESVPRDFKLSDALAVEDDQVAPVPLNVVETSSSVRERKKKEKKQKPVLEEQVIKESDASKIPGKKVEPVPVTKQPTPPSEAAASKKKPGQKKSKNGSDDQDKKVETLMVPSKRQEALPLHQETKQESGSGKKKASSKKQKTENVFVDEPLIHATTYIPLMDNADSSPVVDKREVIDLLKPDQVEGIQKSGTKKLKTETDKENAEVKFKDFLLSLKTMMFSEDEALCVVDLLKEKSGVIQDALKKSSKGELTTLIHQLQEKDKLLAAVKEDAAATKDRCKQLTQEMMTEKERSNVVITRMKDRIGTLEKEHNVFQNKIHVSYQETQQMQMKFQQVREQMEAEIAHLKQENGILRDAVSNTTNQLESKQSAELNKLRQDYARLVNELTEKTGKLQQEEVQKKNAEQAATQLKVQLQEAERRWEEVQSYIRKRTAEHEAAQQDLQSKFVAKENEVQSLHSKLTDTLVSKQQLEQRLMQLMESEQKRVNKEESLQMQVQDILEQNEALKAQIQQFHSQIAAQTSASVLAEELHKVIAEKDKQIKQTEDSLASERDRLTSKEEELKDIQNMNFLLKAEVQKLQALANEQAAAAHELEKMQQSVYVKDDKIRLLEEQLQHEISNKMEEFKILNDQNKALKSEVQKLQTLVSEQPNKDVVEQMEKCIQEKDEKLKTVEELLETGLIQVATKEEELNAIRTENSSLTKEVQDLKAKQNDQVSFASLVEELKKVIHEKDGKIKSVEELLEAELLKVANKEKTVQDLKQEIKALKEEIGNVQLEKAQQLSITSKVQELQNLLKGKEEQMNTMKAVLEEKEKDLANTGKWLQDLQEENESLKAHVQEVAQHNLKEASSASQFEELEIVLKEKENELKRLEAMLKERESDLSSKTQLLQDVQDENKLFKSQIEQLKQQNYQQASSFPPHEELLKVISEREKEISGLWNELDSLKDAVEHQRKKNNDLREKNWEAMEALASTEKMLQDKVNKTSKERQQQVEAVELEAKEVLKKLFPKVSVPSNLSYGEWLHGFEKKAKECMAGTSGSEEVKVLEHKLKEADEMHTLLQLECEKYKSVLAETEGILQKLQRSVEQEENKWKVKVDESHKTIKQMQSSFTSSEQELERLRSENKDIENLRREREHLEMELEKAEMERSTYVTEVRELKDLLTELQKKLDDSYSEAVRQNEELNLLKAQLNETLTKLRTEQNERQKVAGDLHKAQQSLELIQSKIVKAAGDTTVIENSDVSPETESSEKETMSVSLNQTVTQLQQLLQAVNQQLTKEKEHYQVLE

Compound: Nc1ncnc2c1ncn2[C@@H]1O[C@H](COP(=O)(O)OP(=O)(O)OP(=O)(O)O)[C@@H](O)[C@H]1O [adenosine triphosphate]
Test: NP40-soluble protein abundance relative to vehicle (solubility fold change) (ratio); higher = more soluble protein in presence of ATP
Method in brief: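 Across three independent experiments, values are fold changes against the detergent-processed vehicle for each replicate, based on vsn-normalised intensities. The samples were Jurkat crude lysate treated with eight concentrations (0.1 to 10 mM) for 10 min at room temperature and then 3 min at 37 °C. Lysate was solubilised with 0.8% NP40 and benzonase, ultracentrifuged, and the supernatant analysed by TMT-labelled LC-MS/MS.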

| Target | NP40-soluble protein abundance (concentration: 1mM) | NP40-soluble protein abundance (concentration: 2mM) | NP40-soluble protein abundance (concentration: 4mM) | NP40-soluble protein abundance (concentration: 6mM) | NP40-soluble protein abundance (concentration: 8mM) | NP40-soluble protein abundance (concentration: 10mM) |
| --- | --- | --- | --- | --- | --- | --- |
| PARS2 (UniProt Q7L3T8) | 1.06 ± 0.1 | 1.1 ± 0.024 | 1.14 ± 0.074 | 1.03 ± 0.1 | 1.08 ± 0.11 | 1.11 ± 0.065 |
| UniProt Q7Z6L1 and related entries | 0.972 ± 0.052 | 0.936 ± 0.052 | 0.94 ± 0.055 | 0.921 ± 0.092 | 0.948 ± 0.073 | 0.92 ± 0.067 |
| CYFIP1 (UniProt Q7L576) | 1.04 ± 0.14 | 0.994 ± 0.098 | 1.01 ± 0.051 | 0.928 ± 0.12 | 1.03 ± 0.044 | 1 ± 0.037 |
| UniProt Q6PII3 | 0.941 ± 0.057 | 0.962 ± 0.02 | 0.972 ± 0.039 | 0.942 ± 0.052 | 1.01 ± 0.072 | 1.01 ± 0.076 |
| UniProt Q6STE5 and related entries | 1.28 ± 0.29 | 1.2 ± 0.079 | 1.33 ± 0.12 | 1.25 ± 0.13 | 1.32 ± 0.1 | 1.3 ± 0.082 |
| UniProt Q7Z591 and related entries | 1.07 ± 0.082 | 1.07 ± 0.041 | 1.08 ± 0.073 | 1.08 ± 0.063 | 1.07 ± 0.1 | 1.07 ± 0.072 |
| UniProt Q7Z624 | 1 ± 0.021 | 0.983 ± 0.045 | 0.94 ± 0.0078 | 0.992 ± 0.014 | 0.977 ± 0.051 | 1.01 ± 0.12 |
| UniProt Q7KZ85 and related entries | 1.03 ± 0.022 | 0.995 ± 0.01 | 0.931 ± 0.014 | 0.864 ± 0.025 | 0.839 ± 0.019 | 0.821 ± 0.018 |
| SLC30A9 (UniProt Q6PML9) | 0.994 ± 0.01 | 1.02 ± 0.046 | 0.987 ± 0.056 | 0.965 ± 0.059 | 0.976 ± 0.026 | 0.966 ± 0.024 |
| ERI1 (UniProt Q8IV48) | 1.03 ± 0.12 | 1.06 ± 0.062 | 1.12 ± 0.015 | 1.11 ± 0.13 | 1.22 ± 0.05 | 1.24 ± 0.055 |
| UniProt Q7Z406 and related entries | 1.01 ± 0.22 | 1.02 ± 0.1 | 1.04 ± 0.14 | 0.991 ± 0.2 | 1.08 ± 0.12 | 1.02 ± 0.074 |
| UniProt Q86TP1 and related entries | 0.995 ± 0.013 | 1.03 ± 0.064 | 1.03 ± 0.022 | 0.937 ± 0.013 | 0.961 ± 0.015 | 0.991 ± 0.033 |
| UniProt Q8IUH3 and related entries | 1.04 ± 0.069 | 1.05 ± 0.062 | 1.08 ± 0.048 | 1.07 ± 0.059 | 1.05 ± 0.079 | 1.08 ± 0.066 |
| PARG (UniProt Q86W56) | 0.9568 ± 0.0042 | 0.996 ± 0.025 | 0.994 ± 0.044 | 0.998 ± 0.019 | 0.979 ± 0.042 | 0.987 ± 0.031 |
| UniProt Q86TN4 and related entries | 1.03 ± 0.022 | 1.08 ± 0.033 | 1.12 ± 0.049 | 1.18 ± 0.069 | 1.17 ± 0.042 | 1.194 ± 0.011 |
| LPCAT2 (UniProt Q7L5N7) | 0.966 ± 0.037 | 0.951 ± 0.073 | 1.06 ± 0.044 | 0.978 ± 0.017 | 0.951 ± 0.075 | 0.923 ± 0.21 |
| TRAPPC5 (UniProt Q8IUR0) | 0.883 ± 0.076 | 0.899 ± 0.082 | 0.892 ± 0.059 | 0.784 ± 0.07 | 0.878 ± 0.046 | 0.885 ± 0.017 |

| Target | NP40-soluble protein abundance (concentration: 1mM) | NP40-soluble protein abundance (concentration: 2mM) | NP40-soluble protein abundance (concentration: 4mM) | NP40-soluble protein abundance (concentration: 6mM) | NP40-soluble protein abundance (concentration: 8mM) | NP40-soluble protein abundance (concentration: 10mM) |
| --- | --- | --- | --- | --- | --- | --- |
| UniProt Q6ZNE5 and related entries | 0.954 ± 0.13 | 1.01 ± 0.027 | 0.972 ± 0.021 | 1.02 ± 0.054 | 0.934 ± 0.11 | 0.988 ± 0.026 |
| TSEN54 (UniProt Q7Z6J9) | 0.972 ± 0.03 | 0.978 ± 0.03 | 1 ± 0.012 | 1.02 ± 0.026 | 1 ± 0.021 | 0.965 ± 0.021 |
| ZBTB33 (UniProt Q86T24) | 1 ± 0.058 | 0.995 ± 0.011 | 0.998 ± 0.02 | 1.01 ± 0.047 | 0.974 ± 0.017 | 1.02 ± 0.018 |
| SESTD1 (UniProt Q86VW0) | 0.989 ± 0.025 | 1.09 ± 0.03 | 1.05 ± 0.035 | 1.03 ± 0.036 | 1.05 ± 0.051 | 1.02 ± 0.12 |
| CACUL1 (UniProt Q86Y37) | 0.965 ± 0.031 | 0.984 ± 0.027 | 0.977 ± 0.035 | 0.971 ± 0.031 | 0.934 ± 0.031 | 0.928 ± 0.021 |
| UniProt Q7Z3U7 and related entries | 0.96 ± 0.051 | 0.9642 ± 0.0046 | 0.987 ± 0.024 | 0.949 ± 0.015 | 0.973 ± 0.012 | 1 ± 0.028 |
| UniProt Q6ZU80 and related entries | 1.04 ± 0.08 | 1.07 ± 0.077 | 1.11 ± 0.063 | 1.09 ± 0.12 | 1.12 ± 0.073 | 1.11 ± 0.053 |
| UniProt Q86TV6 and related entries | 0.927 ± 0.013 | 0.888 ± 0.016 | 0.964 ± 0.066 | 0.881 ± 0.12 | 0.95 ± 0.13 | 0.991 ± 0.041 |
| UniProt Q6UWE0 and related entries | 0.971 ± 0.036 | 0.972 ± 0.062 | 0.958 ± 0.042 | 0.93 ± 0.063 | 0.958 ± 0.054 | 0.971 ± 0.043 |
| TMED8 (UniProt Q6PL24) | 0.951 ± 0.04 | 0.969 ± 0.038 | 0.949 ± 0.021 | 0.95 ± 0.045 | 0.939 ± 0.026 | 0.951 ± 0.023 |
| APBB1IP (UniProt Q7Z5R6) | 0.967 ± 0.026 | 0.997 ± 0.045 | 0.965 ± 0.027 | 0.964 ± 0.048 | 0.943 ± 0.036 | 0.948 ± 0.031 |
| UniProt Q6Y1H2 | 0.969 ± 0.018 | 0.9698 ± 0.0047 | 0.981 ± 0.024 | 1.02 ± 0.072 | 0.931 ± 0.03 | 0.952 ± 0.029 |
| GPRIN1 (UniProt Q7Z2K8) | 0.961 ± 0.058 | 0.946 ± 0.03 | 1.02 ± 0.023 | 0.994 ± 0.086 | 0.955 ± 0.025 | 0.935 ± 0.049 |
| MTDH (UniProt Q86UE4) | 1.09 ± 0.11 | 1.19 ± 0.05 | 1.3 ± 0.068 | 1.49 ± 0.11 | 1.45 ± 0.047 | 1.54 ± 0.074 |
| KTN1 (UniProt Q86UP2) | 0.957 ± 0.058 | 0.93 ± 0.043 | 0.906 ± 0.038 | 0.969 ± 0.1 | 0.896 ± 0.039 | 0.888 ± 0.024 |
| RASAL3 (UniProt Q86YV0) | 1.06 ± 0.011 | 1.05 ± 0.036 | 1.05 ± 0.024 | 1.07 ± 0.044 | 1.07 ± 0.039 | 1.07 ± 0.04 |
| FASTKD5 (UniProt Q7L8L6) | 1.04 ± 0.19 | 1.08 ± 0.24 | 0.984 ± 0.2 | 0.984 ± 0.059 | 1.03 ± 0.19 | 1.02 ± 0.13 |

Part of the list above in a different format.
Target | NP40-soluble protein abundance (concentration: 1mM) | NP40-soluble protein abundance (concentration: 2mM) | NP40-soluble protein abundance (concentration: 4mM) | NP40-soluble protein abundance (concentration: 6mM) | NP40-soluble protein abundance (concentration: 8mM) | NP40-soluble protein abundance (concentration: 10mM)
CYFIP1 (UniProt Q7L576) | 1.04 ± 0.14 | 0.994 ± 0.098 | 1.01 ± 0.051 | 0.928 ± 0.12 | 1.03 ± 0.044 | 1 ± 0.037
UniProt Q7Z624 | 1 ± 0.021 | 0.983 ± 0.045 | 0.94 ± 0.0078 | 0.992 ± 0.014 | 0.977 ± 0.051 | 1.01 ± 0.12
FASTKD5 (UniProt Q7L8L6) | 1.04 ± 0.19 | 1.08 ± 0.24 | 0.984 ± 0.2 | 0.984 ± 0.059 | 1.03 ± 0.19 | 1.02 ± 0.13
